Measurements published in patent US20250243287A1 (SHENGHE CHINA BIOPHARMACEUTICAL, published 2025).
Changes are numbered by the printed parent chain. Results are given in words; binding and its absence hold for the method and conditions named. Some entries that bind do so weakly or less than the wild type.

Protein sequences, listed by entry. Tags and fused reporters are not part of them.
UniProt P51685: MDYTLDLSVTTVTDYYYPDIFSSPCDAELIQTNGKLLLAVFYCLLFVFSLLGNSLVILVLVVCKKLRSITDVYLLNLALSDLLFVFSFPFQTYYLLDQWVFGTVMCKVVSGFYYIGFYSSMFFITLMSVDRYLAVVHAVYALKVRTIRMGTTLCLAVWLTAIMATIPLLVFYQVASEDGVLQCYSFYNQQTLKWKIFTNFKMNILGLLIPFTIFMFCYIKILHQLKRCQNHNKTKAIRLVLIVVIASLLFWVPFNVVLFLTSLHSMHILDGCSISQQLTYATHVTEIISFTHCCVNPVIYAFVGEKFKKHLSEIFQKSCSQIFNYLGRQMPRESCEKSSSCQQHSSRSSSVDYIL

B1: Ms-1 (antibody, V domains shown)
VH: QVQLQQSGAELVRPGASVTLSCKASGYTFTAYEMHWVRQTPVNGLEWIGAIDPKTGVTAYNQKFKDKAIMTADKYSSTAYMDLRSLTSEDSAVYYCTSRAGGRGRFAYWGQGTLVTVSA
VL: DVVMTQTPLSLPVSLGDQASISCRSSQSLVHSSANTYLHWYLQKPGQSPKVLIYKVSNRFSGVPDRFSGSGSGTDFTLKISRVEAEDLGLYFCSQSTHVPFTFGGGTKLEIK
notes: Mouse hybridoma antibody; also called mouse-derived anti-CCR8 antibody Ms-1
B2: Ms-8 (antibody, V domains shown)
VH: EVQLVETGGGLVQPKGSLKLSCAASGFTFNTYAMNWVRQTPEKGLEWVARIRTKSNNYATSYADSVKDRFTISRYDSQNMLYLQMNNLKTEDTAMYYCVRGGYGIRGDYAMDYWGQGTSVTVSS
VL: DIVMTQAAPSVPVTPGESVSISCRSTKSLLHSNGNTYLYWFLQRPGQSPQLLIYRMSNLASGVPDRFSGSGSGTTFTLRISRVEAEDVGVYYCMQHLEYPFTFGSGTKLEIK
notes: Mouse hybridoma antibody; also called mouse-derived anti-CCR8 antibody Ms-8
B3: Ms-15 (antibody, V domains shown)
VH: B2 VH with Y32N, T40A, E42G, A49G, S61Y, K67R, N79G, A110T
VL: B2 VL with T26S, T75A
notes: Mouse hybridoma antibody; also called mouse-derived anti-CCR8 antibody Ms-15

Target: human CCR8 (chemokine (C-C motif) receptor 8) (human) (UniProt P51685)
Experiment: flow cytometry on CCR8-CHO-K1 cells, PE anti-human IgG Fc secondary

Binder | binding
B1 | binds
B2 | binds
B3 | binds
